Results published in PubChem BioAssay AID540275 (National Center for Advancing Translational Sciences (NCATS), 2011).
Several values for one entry are separate records, joined by “and”; a condition that tells them apart may be missing. Equal values may be shown once. Out of some 320,000 compounds screened, about 620 (0.19%) were called active. Inconclusive results, whose numbers are uncertain, are shown with a selection of clear calls. Rule as the data show it: active = activation above about 80%; inconclusive = between about 30% and that limit; inactive = weaker than that.
Also: 0% is about no effect.

Protein sequences, listed by entry. Tags and fused reporters are not part of them.
UniProt Q8NER1, whole entry, looked up: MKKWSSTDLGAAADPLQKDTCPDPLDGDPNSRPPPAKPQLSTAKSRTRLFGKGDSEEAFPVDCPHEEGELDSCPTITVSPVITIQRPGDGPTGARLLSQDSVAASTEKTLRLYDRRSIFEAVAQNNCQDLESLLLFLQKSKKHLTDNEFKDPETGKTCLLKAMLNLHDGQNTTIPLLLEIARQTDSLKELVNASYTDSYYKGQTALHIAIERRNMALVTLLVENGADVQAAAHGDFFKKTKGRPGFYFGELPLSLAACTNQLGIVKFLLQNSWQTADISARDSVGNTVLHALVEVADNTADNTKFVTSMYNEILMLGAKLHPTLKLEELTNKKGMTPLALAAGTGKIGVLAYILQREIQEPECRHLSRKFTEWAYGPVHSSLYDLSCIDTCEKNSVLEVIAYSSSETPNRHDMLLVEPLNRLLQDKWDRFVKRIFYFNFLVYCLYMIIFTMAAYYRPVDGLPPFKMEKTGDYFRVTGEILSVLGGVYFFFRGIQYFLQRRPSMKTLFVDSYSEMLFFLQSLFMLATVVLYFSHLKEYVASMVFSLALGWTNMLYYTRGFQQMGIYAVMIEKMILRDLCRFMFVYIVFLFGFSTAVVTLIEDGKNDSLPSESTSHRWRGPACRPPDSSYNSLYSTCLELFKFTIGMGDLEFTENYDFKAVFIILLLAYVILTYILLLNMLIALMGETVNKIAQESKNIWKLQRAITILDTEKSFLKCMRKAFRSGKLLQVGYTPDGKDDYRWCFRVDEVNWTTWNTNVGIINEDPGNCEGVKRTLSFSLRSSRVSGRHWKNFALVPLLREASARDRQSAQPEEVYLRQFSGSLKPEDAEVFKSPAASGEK

What follows are molecules tested against Transient receptor potential cation channel subfamily V member 1 (Homo sapiens) (UniProt Q8NER1) (assay: HTS Assay for Compounds that Act as Agonists of the Vanilloid Receptor 1). Details: TRPV1-expressing cells, Fluo-8 calcium influx, agonist mode; at 8.33 µM, stronger effect = higher value.
How it was run: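 Fluo-8 calcium influx in TRPV1-expressing cells, kinetic read (ex 480/em 520 nm). Compound added and read 3 min for agonist activity, followed by capsaicin at EC20 final and 2 min further read for enhancement.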
With `CCC(C)NC(=O)c1cc2c(=O)n(CC)c3ccccc3c2s1` (stereo unspecified) the activation was inconclusive: 33%. In the case of `O=C(Cn1nnc2ccccc21)C1CC1`, the activation is reported as inactive: 0.637%. For `CCOc1ccc(CNC(=O)CS(=O)(=O)Cc2nc(-c3ccc(OC)cc3)oc2C)cc1`, the activation was inconclusive: 52.8%. `CC(C)CNC(=S)N1CCN(C(c2ccccc2)c2ccccc2)CC1` was tested, and the activation was inconclusive: 52.3%. With `O=[N+]([O-])c1cc([N+](=O)[O-])c(Oc2ccccc2F)cc1NN1CCCCC1` the activation was inconclusive: 46.8%. In the case of `NC(=O)C1CCN(C(=S)c2ccc(-c3ccc(Br)cc3)o2)CC1`, the activation is reported as inconclusive: 73.3% and inconclusive: 57.5%. `CCOc1ccc(S(=O)(=O)N2CCN(Cc3ccccc3)CC2)cc1` was tested, and the activation was inactive: -8.13%. In the case of `COCCNc1nnc(SCC(=O)Nc2sc3c(c2C(=O)c2ccccc2)CCCC3)s1`, the activation is reported as inactive: -7.38%. In the case of `COc1cccc(CNC2CCCC2)c1`, the activation is reported as inactive: 1.21%. For `N#C/C(=C/c1ccc(N2CCCCC2)o1)C(=O)NCCc1c[nH]c2ccccc12`, the activation was inconclusive: 36.6%. In the case of `Cc1ccc(CC(=O)Nc2ccc(S(=O)(=O)Nc3ncccn3)cc2)cc1`, the activation is reported as inactive: -0.868%. For `O=C(Nc1ccc(S(=O)(=O)N2CCCCCC2)cc1)c1ccco1`, the activation was inconclusive: 65.1%. In the case of `CCCCOCCCn1c(-c2ccco2)nc2nc3ccccc3nc21`, the activation is reported as inconclusive: 30.8%. In the case of `CCNC(=O)OCc1cn(-c2ccc(Cl)cc2)nn1`, the activation is reported as inconclusive: 46.2%. For `CC1(C)CCC(=O)N2CC[C@H]3C[C@H](OC(=O)Nc4ccccc4)C[C@@H]1[C@H]32`, the activation was inconclusive: 34%. With `CCC(=O)N(CCc1ccccc1)Cc1cc2cccc(C)c2[nH]c1=O` the activation was active: 87.8%. `COCc1[nH][nH]c(=O)c1C=Nc1ccc(Oc2ccccc2)cc1` was tested, and the activation was inconclusive: 34.9%. With `CNc1nc(SCc2ccc(C)cc2)nc2c1CCCC2` the activation was inconclusive: 42.2%. With `O=C(Nc1ccncc1)c1ccc(Cl)c(S(=O)(=O)N2CCCC2)c1` the activation was inconclusive: 36.9%. In the case of `COc1ccc([C@H]2CC(=O)C=C(c3cccc(Br)c3)C2)cc1`, the activation is reported as inconclusive: 45%. For `Cc1cc(Cl)ccc1NC(=S)NC1CCCC1`, the activation was inactive: 17.4%. In the case of `O=C(c1ccc(NC(=O)C2(c3ccccc3)CCOCC2)cc1)N1CCOCC1`, the activation is reported as inactive: -1.45%. With `CCCCN(CCCC)S(=O)(=O)c1ccc(NC(=O)c2cccs2)cc1` the activation was inconclusive: 43.3%. In the case of `CC(=O)c1cc(-c2ccccc2)n(CCC(=O)NC2CCCC2)c1C`, the activation is reported as inconclusive: 61.2%. With `CCn1c(=O)cc(OCC(=O)NCCC(C)C)c2ccccc21` the activation was inactive: 1.19%. With `Cc1ccc(C)c(Sc2ccc(NC(=O)CCN3C(=O)NC4(CCCC4)C3=O)cc2)c1` the activation was inconclusive: 58.1%. With `COc1ccccc1-n1nnnc1SCC(=O)NC1CCCC1` the activation was inconclusive: 32.3%. With `Cc1ccc(C2NC(=S)NC3=C2C(=O)CCC3)cc1` (stereo unspecified) the activation was inactive: -2.35%. With `COc1ccc(NC(=O)c2cccc(S(=O)(=O)N3CCCCCC3)c2)cc1` the activation was inconclusive: 32%. For `CC(C)OC(=O)c1cc(-c2ccc(C=O)o2)ccc1Cl`, the activation was inconclusive: 34.6%. For `Cc1ccc(-c2csc(N(CCCN(C)C)C(=O)c3ccco3)n2)cc1`, the activation was inactive: 2.52%. For `Cc1cccc(NC(=O)c2ccc(S(=O)(=O)N(C)C)cc2)c1`, the activation was inconclusive: 59.4%. `CC1CCC(N2CCN(C(=O)c3ccccc3F)CC2)CC1` (stereo unspecified) was tested, and the activation was inactive: 12.6%. With `Cc1nc2ccc([N+](=O)[O-])cc2c(=O)n1Cc1cccc(F)c1` the activation was inactive: -0.42%. For `CCOC(=O)C1(CCCc2ccccc2)CCN(C(=O)CSC)CC1`, the activation was inconclusive: 47.1%. `COc1nc(C)ccc1-c1noc(-c2cccs2)n1` was tested, and the activation was inconclusive: 32.4%. For `COc1cc(/C=N/NC(=O)c2ccc(-n3cccc3)cc2)ccc1O`, the activation was inconclusive: 39.3%. With `CCOC(=O)c1c(S(=O)(=O)NCC(=O)Nc2ccc(OC)cc2)c(C)n(C)c1C` the activation was inactive: -1.36%. With `O=C(c1ccccc1)N1N=C(c2ccccc2)CC1(O)C(F)(F)F` (stereo unspecified) the activation was inconclusive: 32.1%. For `CCCCOC(=O)CNc1n[nH]c(=S)[nH]c1=O`, the activation was inactive: -2.46%. In the case of `CN(C)S(=O)(=O)c1ccc(C(=O)NCCSc2ccc(Br)cc2)cc1`, the activation is reported as inconclusive: 46.5%. For `Cc1cccc(NC(NC(=O)Cc2ccccc2)C(Cl)(Cl)Cl)c1` (stereo unspecified), the activation was inconclusive: 34.9%. With `O=C(O)c1ccc(/C=N/NC(=O)C2CC2(c2ccccc2)c2ccccc2)cc1` (stereo unspecified) the activation was inactive: 1.09%. `CC(C)c1ccc(NC(=S)NCCc2c[nH]c3ccccc23)cc1` was tested, and the activation was inconclusive: 46.4%. `Cc1ccccc1OCCCSc1nc2ccccc2[nH]1` was tested, and the activation was inconclusive: 35.1%. With `O=C(Nc1nnc(SCc2ccccc2)s1)C1=COCCO1` the activation was inactive: 15.2%. With `CCOc1ccc(C(O)(CCC(C)C)C(CN2CCOCC2)c2ccccc2)cc1` (stereo unspecified) the activation was inconclusive: 57%. `C[C@@H]1CCC(=O)N(C[C@@H](C)CSc2ccc(Br)cc2)CC1` was tested, and the activation was inconclusive: 40.6%. `COc1ccnc(-n2cccc2C#N)c1C#N` was tested, and the activation was inactive: 0.4%. In the case of `COc1ccc(NC(=O)NC2CCCCCCC2)cc1`, the activation is reported as inconclusive: 53.4%. `Cc1cccc(C(=O)Nc2sc(C)c(-c3ccccc3)c2C#N)c1` was tested, and the activation was inconclusive: 35.6%. With `O=C(Nc1cccnc1)c1ccc(Br)s1` the activation was inconclusive: 34.3%. `CC(C)(C)c1ccc(C(=O)NC(=S)N2CCCC2)cc1` was tested, and the activation was inactive: 21.1%. With `COCCN(C(=S)Nc1ccccc1C)C(C)c1ccco1` (stereo unspecified) the activation was inactive: -2.15%. In the case of `Cc1nc2ccc(NC(=O)Cc3ccc4c(c3)OCCO4)cc2s1`, the activation is reported as inactive: -3.25%. With `CC1CN(S(=O)(=O)c2cccc(C(=O)Nc3ccc4c(c3)CCC4)c2)CC(C)O1` (stereo unspecified) the activation was inconclusive: 30.2%. For `Cc1ccc(C(=O)Nc2ncc3c(n2)CC(c2ccco2)CC3=O)cc1` (stereo unspecified), the activation was inconclusive: 63.7%. With `Cc1oc(-c2ccccc2F)nc1CS(=O)(=O)CC(=O)NC(C)CCc1ccccc1` (stereo unspecified) the activation was inconclusive: 32.3%. In the case of `CC(C)(C)c1cc(C(=O)NCCCn2ccnc2)cc(C(C)(C)C)c1`, the activation is reported as inconclusive: 70%. In the case of `CCN(CC)CCN(Cc1cc2cc(C)ccc2[nH]c1=O)C(=O)Nc1ccccc1OC`, the activation is reported as inactive: -2.43%. `O=C(N/N=C/c1ccccn1)c1cc(-c2ccc3ccccc3c2)n[nH]1` was tested, and the activation was inactive: -2.14%. In the case of `O=C(NCc1ccco1)/C(=C\C=C\c1ccccc1)NC(=O)c1ccccc1Br`, the activation is reported as inconclusive: 76.7%. With `CC1CCCN(c2ccc(C(=O)NCc3ccccc3)cn2)C1` (stereo unspecified) the activation was inconclusive: 55.4%. In the case of `COc1ccccc1C1CCN(C(=O)c2ccc(Cl)cc2)CC1`, the activation is reported as inconclusive: 38.5%. With `Cc1nc(-c2cnn(-c3ccccc3)c2)c2cc(C)oc2n1` the activation was inconclusive: 38.9%. `Cc1cccc(NC(=O)c2c(C)nn(-c3ccccc3)c2Cl)c1` was tested, and the activation was inconclusive: 73.1%. `Cc1ccc2nc3c(cc(S(=O)(=O)c4ccccc4)c(=N)n3Cc3ccco3)c(=O)n2c1` was tested, and the activation was inactive: 4.69%. `Cc1ccccc1CCN(C(=O)Cn1nnc2ccccc21)C(C(=O)NC(C)(C)C)c1ccsc1` (stereo unspecified) was tested, and the activation was inconclusive: 33.1%. In the case of `O=C(CS(=O)(=O)Cc1ccccc1)Nc1nc2c(s1)CCCC2`, the activation is reported as inconclusive: 31.5%. `c1ccc(-c2csc(-c3ccncc3)n2)cc1` was tested, and the activation was inactive: 9.83%. For `COc1ccc2c(c1)c1nc3ccccc3nc1n2CCn1c(=O)oc2ccccc21`, the activation was inconclusive: 36.5%. In the case of `C=CCn1c(-c2csc(-c3ccc(Cl)cc3)n2)n[nH]c1=S`, the activation is reported as inactive: -0.179%. In the case of `N#CCC1c2ccccc2CCN1C(=O)Nc1cccc(Cl)c1` (stereo unspecified), the activation is reported as inconclusive: 48.6%. `Cc1c(C(=O)NC2CCCC2)oc2ccccc12` was tested, and the activation was inconclusive: 34%. With `CCc1cccc(C)c1N(C(=O)Cn1c(COC)nc2ccccc21)C(C)COC` (stereo unspecified) the activation was inconclusive: 39.8%. `Cc1ccc(-c2nc(NCCCO)c3ccccc3n2)cc1` was tested, and the activation was inconclusive: 42.5%. In the case of `O=C1C=C(c2cccc(Cl)c2O)C[C@@H](c2ccc3c(c2)OCO3)C1`, the activation is reported as inconclusive: 33.9%. `CCN(CC)c1ccc(S(=O)(=O)N2CCOCC2)cc1NC(=O)CSc1ccccc1` was tested, and the activation was inconclusive: 52.7%. With `Cc1cccc(N2CCN(C(=O)c3ccc4c(c3)NC(=O)C(CSCc3cccc(F)c3)N4)CC2C)c1` (stereo unspecified) the activation was inactive: -0.968%. With `CC(C)OCCCNc1nc(-c2ccccc2)nc2ccccc12` the activation was inconclusive: 36.6%. In the case of `COc1ccc(-c2cc(C(=O)N3CCOCC3)no2)cc1`, the activation is reported as inconclusive: 56.7%. With `Cc1ccc(C(=O)O/N=C(\N)c2ccccn2)cc1C` the activation was inconclusive: 63.1%. For `O=C(Nc1ccnn1C1CCN(CCCC2CCCC2)CC1)c1ccccc1Cl`, the activation was inactive: 2.03%. `COc1ccc(-c2[nH]c(-c3cccc(OC)c3)nc2SCC(=O)NCc2ccco2)cc1` was tested, and the activation was inconclusive: 40.8%. For `c1ccc(Nc2c(-c3ccco3)nc3ccccn23)cc1`, the activation was inactive: -3.09%. `COc1ccc(CNC(=O)c2cccc(S(=O)(=O)N3CCN(c4ccc(F)cc4)CC3)c2)cc1` was tested, and the activation was inactive: 1.04%. `O=C(c1cn(-c2ccccc2)nc1-c1ccc(Cl)cc1)N1CCOCC1` was tested, and the activation was inconclusive: 32.7%. For `Cc1cccc(N(C(=O)c2ccc(CN3CCOCC3)o2)C(C(=O)NC(C)(C)C)c2ccc(F)cc2)c1` (stereo unspecified), the activation was inconclusive: 50.4%. For `CN(C)CC/C=C1/c2ccccc2Sc2ccc(Cl)cc21`, the activation was inactive: 2.92% and inactive: 0.304%. `N#CCN(N=Nc1ccccc1)c1ccccc1` was tested, and the activation was inconclusive: 33.7%. `COC(=O)c1ccc(C(=O)N2CCCC(Nc3ccc(F)c(F)c3)C2)cc1` (stereo unspecified) was tested, and the activation was inconclusive: 53%.
